For at least one compound, name, drawing or mass did not settle the structure.
Assay: In vitro release from coated (and extruded) polymeric implants
Assay type: physicochemical
Conditions: PBS with 10% bovine serum
Method: To formulate the “coated” polymeric implants, blank P-80 implants (1.4 mm dia) were then prepared by dissolving P-80:F68 (9:1) in dichloromethane, followed by evaporation of the solvent in a Petri dish under hood and extrusion of the molten polymer through a silastic tubing mold, similar to the methodologies described herein above. […] For coating, one end of the blank implant (2.5-3.5 cm) was inserted into a silastic tube plug (6 mm long, 1.4 mm dia) while the other end of the plug was attached with a pipet tip. Coatings were then added by dipping the blank implant into the solution with intermittent drying with cool air using a commercial hair dryer and placing them under hood. […] The assembly was placed under hood overnight to remove the residual DCM, implants were excised in 1 or 2 cm lengths and stored in amber vials under argon at -20° C. until used. The rate of in vitro release for the implants was subsequently measured. […] The vials were placed in a water bath (Julabo S W 23, Seelback, Germany) at 37° C. with constant agitation at 110 rpm. The medium was changed every 24 h.

For `COc1cc(/C=C/C(O)=C/C(=O)/C=C/c2ccc(O)cc2)ccc1O` [curcuminoid II, demethoxycurcumin], which “cumulative release over 3 weeks (21 days)” value is on record?
The value was 41.8%.
